These are yes or no findings as the source states them, for the method shown. In cells and extracts the contact can be indirect.
Target: PA0533 (Pseudomonas aeruginosa PAO1) (UniProt Q9I603)
Assay: pull-down; only the target purified

By UniProt entry, the sequences of proteins in these tests, tags left out.
UniProt Q9I741: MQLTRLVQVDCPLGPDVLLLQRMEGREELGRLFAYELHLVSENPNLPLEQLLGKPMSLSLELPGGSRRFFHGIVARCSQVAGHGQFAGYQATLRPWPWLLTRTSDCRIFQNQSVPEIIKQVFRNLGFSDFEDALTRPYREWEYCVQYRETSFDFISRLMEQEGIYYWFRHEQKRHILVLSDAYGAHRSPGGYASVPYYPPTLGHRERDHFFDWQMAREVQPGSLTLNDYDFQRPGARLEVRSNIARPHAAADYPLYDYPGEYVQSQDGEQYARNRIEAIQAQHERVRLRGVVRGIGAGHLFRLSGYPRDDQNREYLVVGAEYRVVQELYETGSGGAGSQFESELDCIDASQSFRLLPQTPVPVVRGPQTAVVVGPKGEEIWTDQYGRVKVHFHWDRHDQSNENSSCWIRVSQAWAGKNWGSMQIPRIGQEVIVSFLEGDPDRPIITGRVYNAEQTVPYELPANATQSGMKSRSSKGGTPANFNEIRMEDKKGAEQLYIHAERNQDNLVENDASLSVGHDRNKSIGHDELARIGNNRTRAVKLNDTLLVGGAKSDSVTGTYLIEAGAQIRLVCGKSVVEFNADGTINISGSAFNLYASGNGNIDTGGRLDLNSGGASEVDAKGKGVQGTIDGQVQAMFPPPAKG
UniProt Q9I737: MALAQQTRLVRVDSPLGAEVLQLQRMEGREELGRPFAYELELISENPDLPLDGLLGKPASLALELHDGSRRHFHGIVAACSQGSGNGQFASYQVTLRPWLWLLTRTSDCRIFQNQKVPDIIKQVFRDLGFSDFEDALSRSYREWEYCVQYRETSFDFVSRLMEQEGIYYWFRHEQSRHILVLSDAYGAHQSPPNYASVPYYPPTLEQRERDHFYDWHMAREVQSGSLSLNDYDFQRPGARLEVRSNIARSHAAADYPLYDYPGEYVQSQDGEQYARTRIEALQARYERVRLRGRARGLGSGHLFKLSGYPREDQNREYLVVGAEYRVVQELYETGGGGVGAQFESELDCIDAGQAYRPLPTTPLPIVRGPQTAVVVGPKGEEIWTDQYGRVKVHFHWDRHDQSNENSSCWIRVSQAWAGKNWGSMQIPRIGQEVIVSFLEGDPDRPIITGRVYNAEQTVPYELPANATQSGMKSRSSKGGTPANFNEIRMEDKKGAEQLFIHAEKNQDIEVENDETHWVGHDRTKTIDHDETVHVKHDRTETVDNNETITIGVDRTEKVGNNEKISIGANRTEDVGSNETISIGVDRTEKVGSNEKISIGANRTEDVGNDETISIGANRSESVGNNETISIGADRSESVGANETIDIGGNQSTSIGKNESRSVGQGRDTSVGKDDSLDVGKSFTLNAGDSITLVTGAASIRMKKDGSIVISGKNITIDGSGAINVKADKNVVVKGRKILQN

Substance	binding
VgrG1a-VSVG (from UniProt Q9I741 1-643)	no binding
VgrG1b-VSVG (from UniProt Q9I737 1-741)	no binding

Reference: publication PMC5379069, “A Pseudomonas T6SS effector recruits PQS-containing outer membrane vesicles for iron acquisition” (Nature Communications, 2017)
